In patent US20210154156A1, “APPLICATION OF COMPOUND IN INHIBITING AB ACCUMULATION AND TREATING ALZHEIMER'S DISEASE” (NORTHEAST NORMAL UNIVERSITY, priority 2018, published 2021):
Counter-ions that a name gives are not always drawn.

Tested on: APP/PS1 transgenic mice
Assay: Thioflavin S and Congo red staining of brain Aβ plaques in APP/PS1 transgenic mice
Assay type: in vivo
Conditions: 10-month-old AD mice after 2 months intragastric administration
Text: The wild-type (WT) and APP/PS1 double transgenic mice used in the experiment of the present invention were purchased from the Model Animal Research Institute of Nanjing University, and the mouse genes were identified in strict accordance with the PCR method provided.
10-month-old AD mice were anesthetized with 0.4% pentobarbital sodium. Blood was taken by perfusing the atria. 4% paraformaldehyde was perfused for whole body fixation. The brain tissue was taken and weighed. The hemibrains were put into 4% paraformaldehyde solution and used for histopathology. The other half was stored in a cryotube at −80° C. for biochemical analysis. The brain tissues fixed with 4% paraformaldehyde were embedded in wax and sliced. The plaques in the cerebral cortex and hippocampus were stained with Thioflavin S and Congo Red. Pathological images were obtained by digital microscope and fluorescence microscope and quantitatively analyzed.

COc1cc2c(cc1OC)C(=O)C(CC1CCN(Cc3ccccc3)CC1)C2 (stereo not shown) [Arishen, donepezil hydrochloride, reference compound]
Number of stained Aβ deposition plaques in cortex or hippocampus (Thioflavin S, Congo red) vs normal saline AD mice: no significant effect
